Consider one sequence from publication PMC10853802, “ESRP1 controls biogenesis and function of a large abundant multiexon circRNA”.

Amino acid sequences for entries named in this document (tags omitted). A change or cut given only in a name is not applied to a line headed by its entry.
UniProt Q6NXG1: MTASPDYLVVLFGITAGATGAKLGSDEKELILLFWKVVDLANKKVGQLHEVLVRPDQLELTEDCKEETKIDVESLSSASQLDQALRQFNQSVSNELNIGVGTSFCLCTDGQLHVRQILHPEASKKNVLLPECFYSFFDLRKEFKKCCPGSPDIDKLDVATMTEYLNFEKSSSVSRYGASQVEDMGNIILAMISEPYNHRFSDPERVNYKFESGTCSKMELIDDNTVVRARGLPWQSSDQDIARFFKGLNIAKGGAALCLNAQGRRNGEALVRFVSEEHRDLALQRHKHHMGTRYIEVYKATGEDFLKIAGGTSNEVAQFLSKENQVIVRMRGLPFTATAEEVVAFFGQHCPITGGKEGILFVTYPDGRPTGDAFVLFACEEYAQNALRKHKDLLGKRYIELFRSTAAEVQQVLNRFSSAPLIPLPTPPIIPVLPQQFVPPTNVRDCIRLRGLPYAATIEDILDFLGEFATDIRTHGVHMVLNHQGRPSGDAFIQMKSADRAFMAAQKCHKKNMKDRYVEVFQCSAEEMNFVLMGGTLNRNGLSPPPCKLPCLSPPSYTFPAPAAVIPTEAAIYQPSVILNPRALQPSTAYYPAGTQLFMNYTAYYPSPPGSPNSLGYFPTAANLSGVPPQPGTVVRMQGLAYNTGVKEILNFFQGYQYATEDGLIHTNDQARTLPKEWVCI

Assay in all cases: ITC
Holding throughout (conditions): ITC: 100 mM NaCl, 10 mM Tris-HCl pH 8.0, 25 C; 300 uM protein injected into 20 uM RNA; recombinant protein; residues 312-430; protein details: His-SUMO removed by Ulp1

Data set [1] concerns the target T1, ESRP1 qRRM2 R331A (human) (UniProt Q6NXG1).
T1 sequence (looked up): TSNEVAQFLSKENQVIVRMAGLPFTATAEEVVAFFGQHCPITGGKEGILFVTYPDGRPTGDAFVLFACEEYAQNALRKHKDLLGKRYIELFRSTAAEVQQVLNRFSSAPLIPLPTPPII

Data set [2] deals with T2, ESRP1 qRRM2 E400A (human) (UniProt Q6NXG1).
T2 sequence (looked up): T1 sequence (looked up) with A20R, E89A

In data set [3] the target is T3, ESRP1 qRRM2 WT (human) (UniProt Q6NXG1).
T3 sequence (looked up): T1 sequence (looked up) with A20R

Substitutions are numbered along the chain they refer to. For part of these data: The comparison behind a weaker result is the experiment's own reference, which may not be listed here. Protein sequences can lack the tags named with them. For part of these data: For at least one entry, the source does not settle the construct or the ends of the probe. For part of these data: At least one verdict was read from the data and is not stated in words by the source.

As for UGGUGG [6-mer RNA], the binding result was “binds more weakly” in data set [1], “binds more weakly” in data set [2] and “binds” in data set [3].
